Like-named read-outs stand apart in the source and are kept apart here.
Legend:
[1] = Loading kinetics of silicone micro-O-rings from methanol PAH solution (GC-MS/MS); type: physicochemical
[2] = ratio of PAH rate constant to that of naphthalene; ref Smith et al. 2010 [24]; cited from earlier work
[3] = ratio of PAH rate constant to that of naphthalene, this study

Compound: c1ccc2c(c1)-c1cccc3c1c-2cc1ccccc13 [Benzo[b]fluoranthene]
- Kx/(KNaph) Value [1]: 0.8658

Compound: c1ccc2c(c1)Cc1ccccc1-2 [Fluorene]
- Kx/(KNaph) Value [1, 3]: 0.7878
- Smith et al. 2010 Kx/(KNaph) Value [2]: 0.7941

Compound: c1cc2ccc3ccc4ccc5cccc6c(c1)c2c3c4c56 [Benzo[g,h,i]perylene]
- Kx/(KNaph) Value [1]: 1.574

Compound: Cc1cccc2ccccc12 [1-Methylnaphthalene]
- Kx/(KNaph) Value [1]: 0.7859

Compound: c1ccc2c(c1)-c1ccc3ccc4cccc5cc-2c1c3c45 [Indeno[1,2,3-cd]pyrene]
- Kx/(KNaph) Value [1]: 1.238

Compound: Cc1ccc2ccccc2c1 [2-Methylnaphthalene]
- Kx/(KNaph) Value [1]: 0.7858

Compound: c1ccc(-c2ccccc2)cc1 [Biphenyl]
- Kx/(KNaph) Value [1]: 0.9737

Compound: c1cc2cccc3c4cccc5cccc(c(c1)c23)c54 [Perylene]
- Kx/(KNaph) Value [1]: 0.997

Compound: c1ccc2ccccc2c1 [Naphthalene]
- Smith et al. 2010 Kx/(KNaph) Value [2]: 1

Compound: c1cc2ccc3cccc4ccc(c1)c2c34 [Pyrene]
- Kx/(KNaph) Value [1]: 0.654
- Smith et al. 2010 Kx/(KNaph) Value [2]: 0.5672

Compound: c1cc2c3c(cccc3c1)CC2 [Acenaphthene]
- Kx/(KNaph) Value [1, 3]: 0.6591
- Smith et al. 2010 Kx/(KNaph) Value [2]: 0.7563

Compound: c1ccc2cc3ccccc3cc2c1 [Anthracene]
- Kx/(KNaph) Value [1, 3]: 0.8025
- Smith et al. 2010 Kx/(KNaph) Value [2]: 0.7647

Compound: C1=Cc2cccc3cccc1c23 [Acenaphthylene]
- Kx/(KNaph) Value [1, 3]: 0.6696

Compound: c1ccc2c(c1)-c1cccc3cccc-2c13 [Fluoranthene]
- Kx/(KNaph) Value [1, 3]: 0.6891
- Smith et al. 2010 Kx/(KNaph) Value [2]: 0.5924

Compound: c1ccc2c(c1)ccc1c3ccccc3ccc21 [Chrysene]
- Kx/(KNaph) Value [1]: 0.004182
- Smith et al. 2010 Kx/(KNaph) Value [2]: 0.5756

Compound: c1ccc2c(c1)ccc1cc3c(ccc4ccccc43)cc12 [Dibenzo[a,h]anthracene]
- Smith et al. 2010 Kx/(KNaph) Value [2]: 0.4622

Compound: c1ccc2c(c1)cc1ccc3cccc4ccc2c1c34 [Benzo[a]pyrene]
- Smith et al. 2010 Kx/(KNaph) Value [2]: 0.5546

Compound: c1ccc2cc3c(ccc4ccccc43)cc2c1 [Benzo[a]anthracene]
- Kx/(KNaph) Value [1]: 0.004586
- Smith et al. 2010 Kx/(KNaph) Value [2]: 0.5798

Compound: c1ccc2c(c1)ccc1ccccc12 [Phenanthrene]
- Kx/(KNaph) Value [1, 3]: 0.8755
- Smith et al. 2010 Kx/(KNaph) Value [2]: 0.6975

Compound: c1ccc2cc3c(cc2c1)-c1cccc2cccc-3c12 [Benzo[k]fluoranthene]
- Kx/(KNaph) Value [1, 3]: 0.8799
